Results are given in words; binding and its absence hold for the method and conditions named. Binding seen in cells or lysates may run through a third protein. Some results given as binding are weak or reduced against the parent protein; the word gives no strength. Tags and fused reporters may be left off the sequences shown.
What was measured:
[1] = molecular target: endogenous Smad2 of 293T cells (UniProt Q15796); test: summary of the co-immunoprecipitation result
[2] = molecular target: endogenous Smad3 of 293T cells (UniProt P84022); test: summary of the co-immunoprecipitation result
[3] = molecular target: endogenous Smad2 of 293T cells (UniProt Q15796); test: co-immunoprecipitation (FIG. 2a legend): anti-c-Myc IP, anti-Smad2 immunoblot
[4] = molecular target: endogenous Smad3 of 293T cells (UniProt P84022); test: co-immunoprecipitation (FIG. 2a legend): anti-c-Myc IP, anti-Smad3 immunoblot
[5] = molecular target: endogenous Smad2 of 293T cells (UniProt Q15796); test: co-immunoprecipitation: anti-c-Myc IP of 293T whole cell extract, immunoblot with anti-Smad2
[6] = molecular target: endogenous Smad3 of 293T cells (UniProt P84022); test: co-immunoprecipitation: anti-c-Myc IP of 293T whole cell extract, immunoblot with anti-Smad3

Sequences of proteins named here, by UniProt entry; tags and fusion partners are left off. Residues count along the entry.
UniProt Q15796, residues 2-467: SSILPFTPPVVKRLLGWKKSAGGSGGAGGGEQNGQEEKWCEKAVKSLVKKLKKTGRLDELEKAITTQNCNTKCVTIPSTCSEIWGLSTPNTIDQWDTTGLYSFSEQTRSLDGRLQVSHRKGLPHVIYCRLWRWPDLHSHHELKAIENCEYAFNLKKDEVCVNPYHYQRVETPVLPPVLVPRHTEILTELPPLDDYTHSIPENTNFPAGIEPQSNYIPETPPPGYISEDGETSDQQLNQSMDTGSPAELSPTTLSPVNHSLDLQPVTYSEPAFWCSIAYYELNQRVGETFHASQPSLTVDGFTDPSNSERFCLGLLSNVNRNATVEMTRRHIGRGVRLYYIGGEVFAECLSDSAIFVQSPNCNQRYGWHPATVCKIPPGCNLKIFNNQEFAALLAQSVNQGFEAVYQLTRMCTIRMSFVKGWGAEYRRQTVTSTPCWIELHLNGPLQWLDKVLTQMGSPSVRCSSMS
UniProt P84022, residues 2-425: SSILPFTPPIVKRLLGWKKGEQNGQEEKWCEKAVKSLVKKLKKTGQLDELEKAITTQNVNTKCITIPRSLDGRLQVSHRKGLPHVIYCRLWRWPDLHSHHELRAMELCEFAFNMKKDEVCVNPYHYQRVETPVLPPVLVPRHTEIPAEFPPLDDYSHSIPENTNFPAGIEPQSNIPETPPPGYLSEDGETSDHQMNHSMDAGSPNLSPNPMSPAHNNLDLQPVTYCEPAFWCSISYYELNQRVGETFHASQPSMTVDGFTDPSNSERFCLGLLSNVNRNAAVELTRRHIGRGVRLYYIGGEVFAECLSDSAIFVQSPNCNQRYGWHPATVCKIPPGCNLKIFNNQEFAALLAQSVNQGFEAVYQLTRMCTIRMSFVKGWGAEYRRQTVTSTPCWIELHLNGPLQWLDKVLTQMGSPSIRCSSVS

binding [1]: binds | binding [2]: binds | binding [3]: binds | binding [4]: binds | binding [5]: binds | binding [6]: binds
B1: c-Myc-tagged PDLIM2 (murine Pdlim2 coding region in pCMV-Myc) (enzyme, not shown: small tags and cut ends)
chain: MALTVDVAGPAPWGFRISGGRDFHTPIIVTKVTERGKAEAADLRPGDIIVAINGQSAENMLHAEAQSKIRQSASPLRLQLDRSQTASPGQTNGEGSLEVLATRFQGSLRTHRDSQSSQRSACFSPVSLSPRPCSPFSTPPPTSPVALSKEDMIGCSFQSLTHSPGLAAAHHLTYPGHPTSQQAGHSSPSDSAVRVLLHSPGRPSSPRFSSLDLEEDSEVFKMLQENRQGRAAPRQSSSFRLLQEALEAEERGGTPAFVPSSLSSQASLPTSRALATPPKLHTCEKCSVNISNQAVRIQEGRYRHPGCYTCADCGLNLKMRGHFWVGNELYCEKHARQRYSMPGTLNSRA

Source: patent publication US20100280095A1
